Screen size: about 400,000 compounds; about 13,000 (3.2%) were called active. The shares of active, inactive and inconclusive entries below differ from those in the screen. Calls follow the shape of the dose curve; as a rule, active = well fitted cell-killing curve with a large enough effect; inconclusive = small, poorly fitted or top-dose-only effect, or effect the other way; inactive = flat fitted curve, though single readings scatter. A potency beside an inconclusive call is a rough fit, not a confirmed value.
Assay: qHTS assay for MDR1-selective chemotherapeutics: Primary screen using the drug-selected MDR subline cells KB-V1; also: nearly all actives have a fitted effect of over 60% in size
Conditions: KB-V1 MDR cells viability, CellTiter-Glo, 72 h; activity change, negative = cytotoxicity: at 46.1 µM (top of the series)
How it was run: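 Cytotoxicity via CellTiter-Glo luminescence after 72 h compound exposure at 37 degrees C. Cells: drug-selected KB-V1 line, DMEM phenol-red free plus 10% FBS. Compounds tested at multiple concentrations; normalized data fitted to concentration-effect curves.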
In the case of `COc1cc(N(C)C)ccc1/C=C/c1ccnc2ccccc12`, the Potency was inconclusive: 7.31 µM [cytotoxic, partial curve, poor fit].
In the case of `Brc1ccc2c(c1)C(C1=NCCN1)c1ccccc1CS2` (stereo not given), the Potency was inconclusive: 5.8 µM [cytotoxic, full curve].
For `Cn1c(=O)c(=O)n(C)c2cc(S(=O)(=O)N3CCN(c4ccccc4F)CC3)ccc21`, the Potency was inconclusive: 14.6 µM [cytotoxic, partial curve].
With `Cn1c(NNC(=O)c2cccc3ccccc23)cc(=O)n(C)c1=O` the “activity change, negative = cytotoxicity” value was inactive: 11.6%.
For `CCC(Sc1nc2cc3c(cc2c(=O)n1Cc1ccco1)OCO3)C(=O)NCCOC` (stereo not given), the Potency was inconclusive: 0.199 µM [cytotoxic, full curve, poor fit].
With `O=C(Nc1ccc(F)c(Cl)c1)C1Cc2c(-c3ccc(Cl)cc3)ccnc2O1` (stereo not given) the Potency was inconclusive: 18.4 µM [cytotoxic, single point].
For `COc1ccccc1NC(=O)CCN1CCC(C(N)=O)CC1`, the Potency was inconclusive: 25.9 µM [rising, single point].
In the case of `CC(=O)N(C)C[C@@H]1Oc2ncc(C#Cc3ccc(F)cc3)cc2C(=O)N([C@@H](C)CO)C[C@H]1C`, the “activity change, negative = cytotoxicity” value was inactive: -4.68%.
For `Cc1ccc(-c2cc(C(F)(F)F)n3ncc(C(=O)N4CCCc5ccccc54)c3n2)cc1`, the “activity change, negative = cytotoxicity” value was inactive: 7.14%.
In the case of `Cc1ccc(-n2[nH]c(C)c(C=Nc3ccc4[nH]c(=O)[nH]c4c3)c2=O)cc1`, the Potency was inconclusive: 16.4 µM [cytotoxic, partial curve].
With `COC(=O)CCn1c(C)cc(C(=O)COc2ccccc2C(N)=O)c1C` the Potency was inconclusive: 18.4 µM [cytotoxic, partial curve].
In the case of `O=C(NCC(c1ccc(Cl)cc1)N1CCCCC1)c1ccc(F)cc1` (stereo not given), the “activity change, negative = cytotoxicity” value was inactive: 11%.
In the case of `COC(=O)[C@H]1C[C@H](OC(=O)NC2CCCC2)[C@@]2(O)CN(S(=O)(=O)c3ccc(C)cc3)CC2[C@H]1C(=O)OC` (stereo not given in full), the “activity change, negative = cytotoxicity” value was inactive: -9.05%.
With `CCOc1ccc(C(C)=O)cc1N1C(=O)C2C3C=CC(C3=C(C)C)C2C1=O` (stereo not given) the Potency was active: 16.4 µM.
With `Cc1cc(C)cc(N2C(=O)c3nccnc3C2=O)c1` the “activity change, negative = cytotoxicity” value was inactive: 0.259%.
With `COCc1cc(=O)[nH]c(N2CCN(Cc3ccc4c(c3)OCO4)CC2)n1` the “activity change, negative = cytotoxicity” value was inactive: 14.5%.
With `c1ccc(CSc2ncn(-c3ccccc3)n2)cc1` the “activity change, negative = cytotoxicity” value was inactive: 0%.
In the case of `COc1ccc(C(=O)NCC(c2cccnc2)N2CCN(c3ccc(F)cc3)CC2)cc1` (stereo not given), the Potency was inconclusive: 3.66 µM [cytotoxic, partial curve].
For `Nc1nc(N)c(S(=O)(=O)c2ccccc2)c(Nc2ccc(Br)cc2)n1`, the “activity change, negative = cytotoxicity” value was inactive: -36.3%.
In the case of `COc1ccc([N+](=O)[O-])c(OC)c1C(=O)NC(=O)Nc1nc(C)nc(C)n1`, the Potency was inconclusive: 18.4 µM [rising, partial curve].
For `c1ccc(-c2nn3c(Cn4nnc5ccccc54)nnc3s2)nc1`, the Potency was active: 18.4 µM.
For `CCCCOc1cccc(C(=O)N(Cc2ccco2)C2CCS(=O)(=O)C2)c1` (stereo not given), the Potency was inconclusive: 29.1 µM [cytotoxic, single point].
With `CCN(CC)C(=O)C1=C(C)N(Cc2ccc(F)cc2)C(=O)C(CC(=O)NCC2CCCCC2)C1` (stereo not given) the Potency was inconclusive: 8.2 µM [cytotoxic, partial curve].
For `COc1ccc(OC)c(CNS(=O)(=O)c2c(C)nc3scc(C)n3c2=O)c1`, the Potency was inconclusive: 32.6 µM [rising, single point].
For `CCN(CC(=O)Nc1cc(Cl)ccc1C)C(=O)c1ccc(N2CCCC2=O)cc1`, the “activity change, negative = cytotoxicity” value was inactive: 0.493%.
In the case of `Cc1nnc(SCCn2c(N3CCCC(C)C3)nc3c2c(=O)[nH]c(=O)n3C)s1` (stereo not given), the Potency was inconclusive: 18.4 µM [cytotoxic, partial curve, poor fit].
In the case of `O=C(OCC(=O)N1CCOCC1)c1cccc(S(=O)(=O)Nc2ccc(F)cc2)c1`, the “activity change, negative = cytotoxicity” value was inactive: 1.83%.
In the case of `O/N=C1\CCCc2ccc(Cl)cc21`, the Potency was inconclusive: 29.1 µM [cytotoxic, single point].
With `CN(C)c1ccc(/C=C/c2ccnc3ccccc23)cc1[N+](=O)[O-]` the Potency was inconclusive: 3.26 µM [cytotoxic, full curve].
In the case of `CCOC(=O)c1cc(C#N)c(Oc2ccccc2)nc1-c1ccccc1`, the Potency was inconclusive: 18.4 µM [cytotoxic, single point].
In the case of `CCN(CC)S(=O)(=O)c1ccc(N2CCCCC2)c(C(=O)Nc2ccccc2N2CCOCC2)c1`, the Potency was inconclusive: 18.4 µM [cytotoxic, partial curve, poor fit].
In the case of `Cc1ccc(N2CCN(C(=S)Nc3cc(C)ccn3)CC2)cc1`, the “activity change, negative = cytotoxicity” value was inactive: 0%.
For `CC(=O)c1cccc(NC(=O)C(C)OC(=O)C2CCC2)c1` (stereo not given), the Potency was inconclusive: 1.03 µM [rising, partial curve].
In the case of `O=C(NCCc1ccc2c(c1)OCCO2)c1cc(S(=O)(=O)N2CCCC2)ccc1Cl`, the Potency was inconclusive: 23.1 µM [cytotoxic, single point].
With `COc1ccc(N2CCN(C(=O)C3CCCN(S(=O)(=O)c4ccc(F)cc4)C3)CC2)cc1` (stereo not given) the Potency was inconclusive: 7.31 µM [cytotoxic, partial curve].
For `CCC(=O)Nc1cc(-c2nn(C)c(=O)c3ccccc23)ccc1N1CCCCC1`, the Potency was inconclusive: 29.1 µM [cytotoxic, single point].
With `Oc1c(C(Nc2nccs2)c2ccc(C(F)(F)F)cc2)ccc2cccnc12` (stereo not given) the Potency was inconclusive: 0.259 µM [cytotoxic, full curve].
In the case of `O=C(Nc1cccc(-c2nc3ncccc3o2)c1)c1ccc(-c2cccc(Cl)c2Cl)o1`, the Potency was active: 6.51 µM.
With `O=C(NCc1ccc2c(c1)CCN2C(=O)c1ccncc1)c1cccc(Cl)c1` the “activity change, negative = cytotoxicity” value was inactive: 9.3%.
With `Fc1ccc(-c2nnc(Cc3ccc(Cl)cc3)o2)cc1` the “activity change, negative = cytotoxicity” value was inactive: 5.11%.
With `COc1ccc(NC(=O)c2sc3nc(C)c(C(=O)Nc4ccc(C)cc4C)c(-c4ccc(Cl)cc4)c3c2N)cc1` the “activity change, negative = cytotoxicity” value was inactive: 0%.
For `CCCCOc1ccc(C(=O)NCCCC(=O)N2CCCCC2)cc1`, the Potency was inconclusive: 14.6 µM [cytotoxic, partial curve].
In the case of `O=C(N/N=C/c1cccnc1)c1ccco1`, the Potency was inconclusive: 0.0065 µM [cytotoxic, full curve].
For `COc1ccc(OC)c(NC(=O)CSC2=Nc3ccccc3C3=NC(CC(=O)NCc4ccco4)C(=O)N23)c1` (stereo not given), the “activity change, negative = cytotoxicity” value was inactive: -19.6%.
In the case of `O=C(c1cnc(-c2ccccc2)s1)c1ccc(Cl)cc1Cl`, the Potency was inconclusive: 18.4 µM [cytotoxic, single point].
% is scaled to controls: 0 for no effect and ±100 for the full control effect; potency is read from the fitted curve at half-maximal effect.
